# Test results reported in patent US10149837B2, “Selective agonists of beta-adrenergic type 3 receptors (BAR3) and use thereof” (UNIVERSITA' DEGLI STUDI DI BARI, priority 2015, dated 2018).
# At least one compound was matched to its structure with a doubt left.
# Test system: AQP2
# Test: kidney slices: AQP2 localisation by confocal laser scanning after stimulation
# Assay type: cell-based, mice
# Conditions: slices of vital tissue from murine C57BL-6 kidneys, 45 minutes of stimulation
# Description: By the technique of “kidney slices”, thin slices of vital tissue from murine C57BL-6 kidneys have been obtained which, maintained in culture medium and appropriate atmosphere, have been stimulated with agonists able to increase the intracellular levels of cAMP (forskolin and vasopressin) and with the agonist of murine BRL37344 BAR3. After 45 minutes of stimulation the tissues have been fixed, marked for AQP2 and observed by confocal laser scanning.
smiles,measurement,value
C=C[C@@]1(C)CC(=O)[C@]2(O)[C@@]3(C)[C@@H](O)CCC(C)(C)[C@@H]3[C@H](O)[C@H](OC(C)=O)[C@@]2(C)O1 [forskolin],apical membrane expression (repositioning) of AQP2,makes the AQP2 exocitated on the apical membrane
